PubChem BioAssay AID1259327 | Drosophila RNAi Screening Center | 2017
This is a random part of about 3,100 reagents tested. 378 of all reagents (12%) were called active. 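Hits include both directions; z-score sign shows ATP rise or fall; raw luminescence values are not plate-normalised.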 Names joined by + are all predicted targets of the reagent. The record does not give: the amount of reagent.

- Purpose: 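Data from controls in screens of zinc and manganese toxicity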
- Cells: Drosophila S2R+ cells
- Reagents: long dsRNA against Drosophila genes
- Timing: 5 days (water added on day 4, read one day later)
- Conditions: water added as vehicle, no metal, one day before read-out
- Detection: 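Total ATP measured by luciferase light, scaled to plate mean, duplicates averaged, then z-scored across plates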
- Reading the numbers: ATP z-score: higher = more total ATP than typical wells; ATP luminescence: higher = more total ATP
- Call rule: 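Called active when the ATP z-score exceeds 1.5 or falls below -1.5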
- Calls: active = hit: ATP up or down; inactive = no clear ATP change

The opening 3 records as a preview:
predicted target | DRSC id | ATP z-score, duplicate mean | ATP luminescence, replicate 1 (RLU) | ATP luminescence, replicate 2 (RLU) | Call
CG33958 | DRSC06472 | -0.434 | 6.83e5 | 7.09e5 | inactive
CG33958 | DRSC06944 | 0.182 | 6.88e5 | 5.84e5 | inactive
CG33958 | DRSC29635 | 0.247 | 7.69e5 | 9.28e5 | inactive

Results, from the first entry:
predicted target | DRSC id | ATP z-score, duplicate mean | ATP luminescence, replicate 1 (RLU) | ATP luminescence, replicate 2 (RLU) | Call
CG33958 | DRSC06472 | -0.434 | 6.83e5 | 7.09e5 | inactive
CG33958 | DRSC06944 | 0.182 | 6.88e5 | 5.84e5 | inactive
CG33958 | DRSC29635 | 0.247 | 7.69e5 | 9.28e5 | inactive
CG32262 | DRSC08165 | 0.57 | 7.98e5 | 7.85e5 | inactive
CG32262 | DRSC29141 | 0.745 | 9.74e5 | 8.56e5 | inactive
Mics1 | DRSC12537 | -0.171 | 2.67e5 | 8.07e5 | inactive
Mics1 | DRSC39452 | 0.911 | 5.38e5 | 4.90e5 | inactive
CG6938 | DRSC10752 | 0.0223 | 9.19e5 | 8.79e5 | inactive
CG6938 | DRSC28621 | -0.695 | 8.04e5 | 6.80e5 | inactive
Gr93d | DRSC21941 | 1.26 | 7.65e5 | 6.06e5 | inactive
Lrp4 | DRSC20118 | 1.13 | 8.18e5 | 8.26e5 | inactive
Srg2 | DRSC10681 | -0.754 | 6.57e5 | 6.43e5 | inactive
Srg2 | DRSC24667 | 0.21 | 8.42e5 | 9.11e5 | inactive
CG30394 | DRSC04074 | 0.115 | 7.39e5 | 7.38e5 | inactive
CG30394 | DRSC04260 | -1.06 | 5.44e5 | 6.97e5 | inactive
smog | DRSC00334 | -0.422 | 6.60e5 | 7.02e5 | inactive
smog | DRSC23053 | -0.167 | 5.74e5 | 5.57e5 | inactive
smog | DRSC27223 | -0.997 | 9.54e5 | 9.38e5 | inactive
CG14778 | DRSC17953 | -0.262 | 5.23e5 | 6.02e5 | inactive
CG14778 | DRSC39900 | -0.883 | 4.13e5 | 6.15e5 | inactive
CG4301 | DRSC19886 | -0.402 | 6.12e5 | 7.03e5 | inactive
CG4301 | DRSC39420 | -0.29 | 4.35e5 | 4.32e5 | inactive
Lgr4 | DRSC18970 | -0.248 | 5.53e5 | 6.42e5 | inactive
Lgr4 | DRSC19884 | -1.66 | 5.43e5 | 7.83e5 | active
Lgr4 | DRSC24434 | -0.38 | 7.95e5 | 8.53e5 | inactive
Hacd2 | DRSC03181 | -0.349 | 7.16e5 | 6.63e5 | inactive
CG32983 | DRSC22367 | 0.197 | 8.78e5 | 8.71e5 | inactive
Trc8 | DRSC15437 | -0.206 | 6.82e5 | 6.87e5 | inactive
Trc8 | DRSC28575 | -0.411 | 8.95e5 | 6.62e5 | inactive
CG5104 | DRSC11765 | 0.303 | 9.51e5 | 9.20e5 | inactive
CG5104 | DRSC39641 | -0.328 | 4.37e5 | 4.49e5 | inactive
promL | DRSC08733 | -0.0336 | 7.53e5 | 7.01e5 | inactive
Spg7 | DRSC18469 | 0.333 | 6.27e5 | 7.17e5 | inactive
Spg7 | DRSC39600 | -0.281 | 3.98e5 | 4.96e5 | inactive
CG5404 | DRSC28832 | -0.352 | 8.12e5 | 7.51e5 | inactive
CG5404 | DRSC39809 | 1.3 | 5.16e5 | 6.28e5 | inactive
Sr-CI | DRSC00790 | 0.119 | 7.65e5 | 7.13e5 | inactive
Sr-CI | DRSC23942 | 0.101 | 8.06e5 | 9.20e5 | inactive
Cln7 | DRSC11005 | 0.723 | 8.21e5 | 7.95e5 | inactive
Inx7 + cm | DRSC18753 | 0.292 | 7.39e5 | 7.33e5 | inactive
GC1 | DRSC15322 | -0.308 | 2.55e5 | 8.05e5 | inactive
GC1 | DRSC25627 | -1.16 | 6.86e5 | 6.82e5 | inactive
cue | DRSC08248 | 0.561 | 7.74e5 | 8.08e5 | inactive
cue | DRSC39507 | 0.0796 | 5.05e5 | 4.14e5 | inactive
ppk16 | DRSC02736 | 0.0634 | 7.34e5 | 7.32e5 | inactive
ppk29 | DRSC04205 | -0.444 | 6.85e5 | 6.73e5 | inactive
ppk29 | DRSC39599 | 1.64 | 4.87e5 | 6.70e5 | active
Gr98a | DRSC14719 | 0.331 | 8.26e5 | 6.98e5 | inactive
Toll-9 | DRSC11776 | -1.09 | 7.93e5 | 7.15e5 | inactive
tty | DRSC20588 | 0.194 | 7.25e5 | 7.26e5 | inactive
tty | DRSC26868 | 2.58 | 1.01e6 | 1.14e6 | active
rho | DRSC08734 | 2.08 | 8.09e5 | 8.07e5 | active
rho | DRSC39615 | 1.4 | 5.99e5 | 5.20e5 | inactive
Tsp5D | DRSC18380 | -0.226 | 5.52e5 | 7.00e5 | inactive
Tsp5D | DRSC39908 | 1.13 | 6.60e5 | 7.02e5 | inactive
Tmtc3 | DRSC04444 | -0.817 | 6.61e5 | 6.26e5 | inactive
Tyler + Shawn | DRSC19564 | 0.0531 | 7.30e5 | 6.98e5 | inactive
Tyler + Shawn | DRSC19565 | 2.1 | 1.06e6 | 7.40e5 | active
Yif1 | DRSC15817 | -2.11 | 5.16e5 | 6.49e5 | active
zpg | DRSC09702 | 0.0918 | 8.82e5 | 9.32e5 | inactive
zpg | DRSC26258 | -0.677 | 7.82e5 | 7.50e5 | inactive
CG32579 | DRSC19872 | 0.399 | 6.80e5 | 7.73e5 | inactive
CG32579 | DRSC39617 | -0.964 | 3.56e5 | 4.45e5 | inactive
Sc2 | DRSC08162 | 0.311 | 7.20e5 | 8.10e5 | inactive
Sc2 | DRSC26153 | -0.394 | 8.27e5 | 7.75e5 | inactive
alpha-Catr | DRSC28046 | 0.0693 | 8.25e5 | 1.03e6 | inactive
VhaAC45 | DRSC07058 | 0.69 | 7.99e5 | 8.11e5 | inactive
VhaAC45 | DRSC39906 | 1.68 | 7.20e5 | 7.36e5 | active
